Experimental data: article PMC7677398
No constants are given. Whether binding was seen depends on the method and setting. Binding seen in cells or lysates may run through a third protein. Some results given as binding are weak or reduced against the parent protein; the word gives no strength.

Molecular target: T1, Bcl-2 (mouse (endogenous in cultured mouse GECs)), P10417
T1 chain: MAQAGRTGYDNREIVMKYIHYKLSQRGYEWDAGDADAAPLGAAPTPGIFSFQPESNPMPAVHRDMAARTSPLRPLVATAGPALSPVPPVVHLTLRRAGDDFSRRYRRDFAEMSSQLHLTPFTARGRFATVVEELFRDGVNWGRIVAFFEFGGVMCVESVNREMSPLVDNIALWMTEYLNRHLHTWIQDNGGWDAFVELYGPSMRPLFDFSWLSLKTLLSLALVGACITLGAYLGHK
Assay: co-IP; endogenous proteins; precleared GEC lysates incubated with anti-Bcl-2 antibody overnight at 4 °C, protein A-agarose 2 h at 4 °C, normal rabbit IgG as control; cells untreated or treated with tunicamycin (TM)
Conditions: remark: other sources report otherwise

- binding: binds
B1: Beclin-1, O88597 1-448 (protein)
chain: MEGSKASSSTMQVSFVCQRCSQPLKLDTSFKILDRVTIQELTAPLLTTAQAKPGETQEEEANSGEEPFIETRQDGVSRRFIPPARMMSTESANSFTLIGEASDGGTMENLSRRLKVTGDLFDIMSGQTDVDHPLCEECTDTLLDQLDTQLNVTENECQNYKRCLEILEQMNEDDSEQLQRELKELALEEERLIQELEDVEKNRKVVAENLEKVQAEAERLDQEEAQYQREYSEFKRQQLELDDELKSVENQVRYAQIQLDKLKKTNVFNATFHIWHSGQFGTINNFRLGRLPSVPVEWNEINAAWGQTVLLLHALANKMGLKFQRYRLVPYGNHSYLESLTDKSKELPLYCSGGLRFFWDNKFDHAMVAFLDCVQQFKEEVEKGETRFCLPYRMDVEKGKIEDTGGSGGSYSIKTQFNSEEQWTKALKFMLTNLKWGLAWVSSQFYNK
